Results are given in words; binding and its absence hold for the method and conditions named. In cells and extracts the contact can be indirect. Here binding means that the protein was enriched with, or labelled near, the bait; the list need not be complete.
biological target: Strep/FLAG SOX11 (mouse) (UniProt Q7M6Y2); assay: affinity purification with mass spectrometry; Strep/FLAG SOX11 transiently expressed in SILAC-labelled Neuro2a cells; anti-Flag M2 agarose beads with nuclear extract, Benzonase added to exclude DNA-mediated interactions; washed in TBS with 0.1% NP40; FLAG peptide elution; three forward and three reverse experiments

The chains behind the UniProt entries cited, without tags or fusion partners.
UniProt Q7M6Y2: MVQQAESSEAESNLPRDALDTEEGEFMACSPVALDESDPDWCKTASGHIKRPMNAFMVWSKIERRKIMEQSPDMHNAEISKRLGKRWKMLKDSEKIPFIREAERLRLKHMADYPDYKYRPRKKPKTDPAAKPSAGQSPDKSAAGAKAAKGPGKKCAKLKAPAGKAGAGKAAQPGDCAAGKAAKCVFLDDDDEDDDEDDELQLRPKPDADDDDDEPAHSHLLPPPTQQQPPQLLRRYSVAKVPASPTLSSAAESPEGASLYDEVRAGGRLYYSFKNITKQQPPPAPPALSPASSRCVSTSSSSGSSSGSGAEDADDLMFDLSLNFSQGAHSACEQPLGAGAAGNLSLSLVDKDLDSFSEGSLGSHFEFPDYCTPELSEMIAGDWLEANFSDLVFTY
UniProt Q9WTQ5: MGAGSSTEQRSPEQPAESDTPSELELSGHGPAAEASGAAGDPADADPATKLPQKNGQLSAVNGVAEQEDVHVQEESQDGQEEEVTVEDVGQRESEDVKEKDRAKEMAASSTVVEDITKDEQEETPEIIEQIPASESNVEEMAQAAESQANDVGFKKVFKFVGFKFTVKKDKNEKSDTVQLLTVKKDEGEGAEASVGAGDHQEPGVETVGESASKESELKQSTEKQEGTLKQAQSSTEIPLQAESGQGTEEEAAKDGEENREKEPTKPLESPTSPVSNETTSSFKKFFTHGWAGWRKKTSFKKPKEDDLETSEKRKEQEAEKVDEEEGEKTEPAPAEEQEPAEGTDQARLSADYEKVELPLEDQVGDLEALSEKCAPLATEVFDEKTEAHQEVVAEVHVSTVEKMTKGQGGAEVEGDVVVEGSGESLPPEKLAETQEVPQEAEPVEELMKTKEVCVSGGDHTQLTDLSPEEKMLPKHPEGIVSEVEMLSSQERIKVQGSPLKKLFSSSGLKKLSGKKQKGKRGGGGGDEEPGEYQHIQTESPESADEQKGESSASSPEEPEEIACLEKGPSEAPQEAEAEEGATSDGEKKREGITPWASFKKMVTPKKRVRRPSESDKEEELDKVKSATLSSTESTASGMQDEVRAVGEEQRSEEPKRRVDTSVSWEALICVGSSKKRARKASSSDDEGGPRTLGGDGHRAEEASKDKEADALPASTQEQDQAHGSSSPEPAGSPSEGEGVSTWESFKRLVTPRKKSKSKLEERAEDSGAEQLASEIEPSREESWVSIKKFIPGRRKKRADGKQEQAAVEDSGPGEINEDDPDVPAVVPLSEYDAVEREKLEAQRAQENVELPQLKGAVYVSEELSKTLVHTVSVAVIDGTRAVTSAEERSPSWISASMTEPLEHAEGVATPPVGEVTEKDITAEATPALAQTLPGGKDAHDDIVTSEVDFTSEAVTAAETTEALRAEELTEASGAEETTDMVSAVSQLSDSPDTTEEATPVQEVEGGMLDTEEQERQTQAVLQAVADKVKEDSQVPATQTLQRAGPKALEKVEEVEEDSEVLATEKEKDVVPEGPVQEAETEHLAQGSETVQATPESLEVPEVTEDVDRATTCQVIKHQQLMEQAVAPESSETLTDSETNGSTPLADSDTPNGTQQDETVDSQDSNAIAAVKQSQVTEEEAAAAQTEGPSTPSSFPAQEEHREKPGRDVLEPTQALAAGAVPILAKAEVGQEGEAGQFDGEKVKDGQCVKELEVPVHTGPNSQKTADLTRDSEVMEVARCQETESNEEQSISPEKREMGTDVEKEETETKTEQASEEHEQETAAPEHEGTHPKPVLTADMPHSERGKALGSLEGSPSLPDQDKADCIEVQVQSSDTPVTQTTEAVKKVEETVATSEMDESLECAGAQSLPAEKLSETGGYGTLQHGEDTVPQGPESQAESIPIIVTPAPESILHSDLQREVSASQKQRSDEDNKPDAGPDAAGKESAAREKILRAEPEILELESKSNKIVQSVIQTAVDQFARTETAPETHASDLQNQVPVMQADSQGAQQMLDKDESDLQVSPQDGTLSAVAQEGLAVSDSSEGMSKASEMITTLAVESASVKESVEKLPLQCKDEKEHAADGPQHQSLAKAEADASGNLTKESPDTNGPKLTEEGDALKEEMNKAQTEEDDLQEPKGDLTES
UniProt Q9DBR0: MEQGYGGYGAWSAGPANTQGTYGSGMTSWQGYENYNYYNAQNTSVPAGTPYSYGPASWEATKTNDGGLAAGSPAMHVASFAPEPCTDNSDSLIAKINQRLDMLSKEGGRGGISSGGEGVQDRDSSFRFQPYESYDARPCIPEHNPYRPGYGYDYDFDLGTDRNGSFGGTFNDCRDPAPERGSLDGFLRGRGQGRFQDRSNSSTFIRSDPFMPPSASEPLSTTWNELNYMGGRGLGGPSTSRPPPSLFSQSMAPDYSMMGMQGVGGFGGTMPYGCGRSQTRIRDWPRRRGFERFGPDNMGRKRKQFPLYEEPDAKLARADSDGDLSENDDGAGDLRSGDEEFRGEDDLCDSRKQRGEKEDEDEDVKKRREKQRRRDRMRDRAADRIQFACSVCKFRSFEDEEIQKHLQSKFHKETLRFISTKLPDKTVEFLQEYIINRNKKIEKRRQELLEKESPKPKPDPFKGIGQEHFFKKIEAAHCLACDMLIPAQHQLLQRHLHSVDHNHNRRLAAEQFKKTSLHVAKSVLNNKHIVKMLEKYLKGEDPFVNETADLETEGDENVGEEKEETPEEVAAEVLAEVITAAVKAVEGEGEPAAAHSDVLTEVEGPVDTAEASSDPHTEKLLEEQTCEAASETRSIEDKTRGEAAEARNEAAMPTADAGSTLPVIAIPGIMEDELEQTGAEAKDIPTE
UniProt Q9DBC7: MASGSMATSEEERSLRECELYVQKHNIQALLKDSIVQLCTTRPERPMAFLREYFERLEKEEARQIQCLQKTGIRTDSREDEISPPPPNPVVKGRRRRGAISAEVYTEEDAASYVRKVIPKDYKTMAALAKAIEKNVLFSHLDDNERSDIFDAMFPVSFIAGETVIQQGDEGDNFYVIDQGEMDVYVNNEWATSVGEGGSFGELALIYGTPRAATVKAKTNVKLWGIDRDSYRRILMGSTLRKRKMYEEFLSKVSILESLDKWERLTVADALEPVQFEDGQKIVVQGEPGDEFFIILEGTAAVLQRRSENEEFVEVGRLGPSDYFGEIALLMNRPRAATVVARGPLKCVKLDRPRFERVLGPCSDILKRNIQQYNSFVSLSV

Row | Substance | binding
1 | A-Kinase Anchoring Protein 12 (from UniProt Q9WTQ5 1-1684) | binds
2 | A-Kinase Anchoring Protein 8 (from UniProt Q9DBR0 1-687) | binds
3 | Protein Kinase A Type 1a Regulatory Subunit (from UniProt Q9DBC7 1-381) | binds

From paper PMC6212486
